Out of some 300,000 compounds screened, about 5,400 (1.8%) were called active. This list was built around the results that the source calls inconclusive (neither active nor inactive); the mix of calls is not that of the screen. Calls follow the shape of the full dose curve; tested in HEK293 cells. Potencies beside an inconclusive call are fits to weak or partial responses and may not hold up.
Experiment: qHTS for inhibitors of binding or entry into cells for Marburg Virus
Conditions: Marburg virus pseudotyped entry inhibition, cell reporter; activity change, negative = inhibition: at 37.8 µM (top of the series) unless noted
% is scaled to controls: 0 for no effect and ±100 for the full control effect; potency is read from the fitted curve at half-maximal effect.

SMILES | Potency | activity change, negative = inhibition
CCCN1C2CCCC1CC(NC(=O)c1ccc(Br)cc1)C2 (stereo not given) | inconclusive: 1.26 µM [inhibitor, single point] | –
O=c1oc2ccc(Br)cc2cc1-c1nc(-c2ccccc2)no1 | – | inactive: 24.8% [at 46.1 µM]
CCCCn1c(SCC(=O)Nc2nnc(CC)s2)nc2c1c(=O)n(C)c(=O)n2C | inconclusive: 20.6 µM [inhibitor, single point] | –
Oc1ccc(N2CCN(c3ccnc4cc(Cl)ccc34)CC2)cc1 | inconclusive: 31.6 µM [inhibitor, single point] | –
COc1cccc(C(=O)Nc2ccc(C(F)(F)F)n(C)c2=O)c1 | inconclusive: 0.891 µM [activator, full curve, poor fit] | –
CN(C)CCCNc1ncnc2oc(-c3ccccc3)c(-c3ccccc3)c12 | active: 8.91 µM | –
CC(C)CN(CC(C)C)CC(O)CN(c1ccccc1)S(=O)(=O)c1ccccc1[N+](=O)[O-] (stereo not given) | inconclusive: 10 µM [inhibitor, partial curve, poor fit] | –
Cc1ccc([N+](=O)[O-])c(OCCn2cnc3ccccc32)c1 | inconclusive: 35.5 µM [inhibitor, single point] | –
CCOc1ccccc1C1C(C(N)=O)=C(C)Nc2nc(-c3ccc(OC)cc3)nn21 (stereo not given) | – | inactive: 11.5%
O=C(Nc1ccc(-c2nc3ccccc3[nH]2)cc1)c1ccco1 | inactive | –
COc1cc(/C=N/NC(=O)NC2CCCCC2)ccc1O | – | inactive: 14.4% [at 46.1 µM]
NC(=O)c1nsc(C(=O)N(Cc2ccccc2F)C(C(=O)NCC2CCCO2)c2ccc(F)cc2)c1N (stereo not given) | inconclusive: 31.6 µM [inhibitor, single point] | –
CC(CNC(=O)c1ccc(-c2ccccc2)cc1)CN(C)C (stereo not given) | inconclusive: 15.8 µM [inhibitor, single point] | –
O=C(Cn1ccc([N+](=O)[O-])n1)Nc1nc2ccccc2s1 | inconclusive: 2.82 µM [inhibitor, single point] | –
Cc1cc(Nc2ccccc2O)c2ccccc2n1 | inconclusive: 10 µM [inhibitor, partial curve, poor fit] | –
O=C1C2CCCN2C(=S)N1c1cc(Cl)ccc1Cl (stereo not given) | inconclusive: 17.8 µM [inhibitor, single point] | –
CCN(CC)CCOC(=O)c1ccc(N/C=C(/C#N)c2nc(-c3ccc(OC)c(OC)c3)cs2)cc1 | inconclusive: 12.6 µM [inhibitor, partial curve, poor fit] | –
COc1ccc(C(=O)OCC(=O)c2ccc(C3CCCCC3)cc2)cc1 | inconclusive: 10 µM [inhibitor, partial curve, poor fit] | –
Cc1cccc(C)c1-n1c(SCC(=O)N2CC(=O)Nc3ccccc32)nc2ccccc2c1=O | inconclusive: 25.1 µM [inhibitor, single point] | –
COc1ccc([N+](=O)[O-])c(S(=O)(=O)c2ccccc2)n1 | inconclusive: 7.94 µM [inhibitor, partial curve, poor fit] | –
Cc1nn(C)c2ncc(C(=O)c3cc(F)ccc3O)cc12 | inconclusive: 2.24 µM [activator, partial curve, poor fit] | –
COC(=O)c1ccc2c(=O)n(CC3CCCO3)c(SCC(=O)Nc3ccccc3Cl)nc2c1 (stereo not given) | inconclusive: 2.59 µM [activator, single point] | –

SMILES | Potency | activity change, negative = inhibition
Cc1ccc([S+](=O)([O-])N(c2ccccc2)[S+](=O)([O-])C(F)(F)F)cc1 | inactive | –
COc1ccc(C(C(=O)NC(C)C)N(C(=O)CCC(=O)Nc2nccs2)c2ccccc2F)cc1 (stereo not given) | inconclusive: 7.94 µM [inhibitor, partial curve, poor fit] | –
COC(=O)CSc1ccc(S(=O)(=O)N2CCC(C)CC2)cc1[N+](=O)[O-] | inconclusive: 35.5 µM [activator, single point] | –
Cc1ccc(/C(N)=N/OC(=O)/C=C/c2ccccc2)cc1 | inconclusive: 12.6 µM [activator, partial curve, poor fit] | –
CN(C)CCn1cnc2c1c(=O)[nH]c(=O)n2Cc1ccccc1 | inconclusive: 0.891 µM [activator, single point] | –
CC(=O)c1c(C)[nH]c(C(=O)NC2CCSc3ccccc32)c1C (stereo not given) | inconclusive: 11.2 µM [inhibitor, partial curve, poor fit] | –
CN1C(=O)C2(OCC(COc3ccc(Cl)cc3)O2)c2ccccc21 (stereo not given) | inconclusive: 18.3 µM [inhibitor, partial curve] | –
COc1ccc(NC(=O)COC(=O)c2cccc(S(=O)(=O)N(C)C)c2)cc1 | inconclusive: 3.55 µM [inhibitor, single point] | –
O=C(CNC(=O)c1cccs1)Nc1ccncc1 | inconclusive: 3.16 µM [inhibitor, partial curve, poor fit] | –
C=CCn1c(Sc2ncc([N+](=O)[O-])s2)n[nH]c1=O | inconclusive: 35.5 µM [inhibitor, single point] | –
C=CCn1c(N)c(C(=O)Nc2cccc(C)c2)c2nc3ccccc3nc21 | inconclusive: 25.9 µM [inhibitor, partial curve] | –
Cc1cc(NS(=O)(=O)c2ccc(Nc3nc(-c4ccc(O)cc4)cs3)cc2)no1 | – | inactive: -25.9%
O=C(/C=C\Nc1ccccn1)c1ccccc1 | inconclusive: 2.24 µM [inhibitor, partial curve, poor fit] | –
CCN(C(=O)Cc1ccc(Br)cc1)C1CCCCC1 | inconclusive: 6.31 µM [activator, single point] | –
COc1ccc(C(=O)Nc2ccc3oc(Cc4ccc(Cl)cc4)nc3c2)cc1OC | – | inactive: 0%
O=C(CSc1nccc(=O)[nH]1)NN(c1ccccc1)c1ccccc1 | inconclusive: 5.62 µM [activator, single point] | –
CCOc1cc(Br)c(COc2ccc(C)nc2[N+](=O)[O-])cc1OCC | inconclusive: 13 µM [inhibitor, partial curve, poor fit] | –
CC1CCCCC1NC(=O)CO/N=C/c1ccccc1OC(F)F (stereo not given) | inconclusive: 25.1 µM [inhibitor, partial curve, poor fit] | –
CC(C)NS(=O)(=O)c1ccc(CCC(=O)Nc2cc(Cl)ccc2Oc2ccccc2)cc1 | inconclusive: 22.4 µM [inhibitor, partial curve, poor fit] | –
CC(C)C[C@H](NC(=O)OC(C)(C)C)C(=O)NCc1ccccc1 | inconclusive: 5.01 µM [activator, full curve, poor fit] | –
Nc1nonc1C(=O)N/N=C/c1ccc(-c2ccc(Cl)c(C(=O)O)c2)o1 | inconclusive: 12.6 µM [activator, partial curve, poor fit] | –
COc1ccc(NC(=O)c2cc(=O)c3ccc(C)c(C)c3o2)cc1Cl | – | inactive: 4.16% [at 46.1 µM]

Molecules above containing an NH in an aromatic ring (five):
SMILES | Potency | activity change, negative = inhibition
O=C(Nc1ccc(-c2nc3ccccc3[nH]2)cc1)c1ccco1 | inactive | –
CN(C)CCn1cnc2c1c(=O)[nH]c(=O)n2Cc1ccccc1 | inconclusive: 0.891 µM [activator, single point] | –
CC(=O)c1c(C)[nH]c(C(=O)NC2CCSc3ccccc32)c1C (stereo not given) | inconclusive: 11.2 µM [inhibitor, partial curve, poor fit] | –
C=CCn1c(Sc2ncc([N+](=O)[O-])s2)n[nH]c1=O | inconclusive: 35.5 µM [inhibitor, single point] | –
O=C(CSc1nccc(=O)[nH]1)NN(c1ccccc1)c1ccccc1 | inconclusive: 5.62 µM [activator, single point] | –

Following part.

SMILES | Potency | activity change, negative = inhibition
CCN(CC)CCC=C(c1cccs1)c1cccs1 | inconclusive: 10 µM [inhibitor, partial curve, poor fit] | –
O=c1[nH]c(C2CCN(S(=O)(=O)c3cccc(C(F)(F)F)c3)CC2)nc2c1nnn2Cc1cccc(F)c1 | inconclusive: 10 µM [inhibitor, partial curve] | –
COc1cccc(-n2c(SCC(=O)NC3CCCC3)nnc2-c2ccco2)c1 | – | inactive: -2.07% [at 46.1 µM]
CC1(C)Cc2c(sc3ncnc(NNC(=S)NCc4ccccc4)c23)CO1 | inconclusive: 1.16 µM [inhibitor, full curve, poor fit] | –
CCOC(=O)c1sc(NC(=O)CCN2C(=O)c3cccc([N+](=O)[O-])c3C2=O)c(C(=O)OCC)c1C | inconclusive: 1.46 µM [inhibitor, partial curve, poor fit] | –
O=C(Nc1ccccc1)c1cc2ccccc2s1 | inconclusive: 0.562 µM [activator, full curve, poor fit] | –
CCN1CCCC1CNCC(O)COc1ccc(C(C)(C)C)cc1C (stereo not given) | inconclusive: 31.6 µM [inhibitor, single point] | –
COc1ccc2cc(S(=O)(=O)c3ccccc3)c(=O)oc2c1 | – | inactive: 1.5%
COc1ccc(-n2c(=O)c3c4c(sc3n3c(SC(C)C)nnc23)COC(C(C)C)C4)cc1 (stereo not given) | – | inactive: 2.21% [at 46.1 µM]
Cc1[nH]n(-c2ccccc2)c(=O)c1N=Nc1ccc(C(=O)O)cc1 | – | inactive: 28.7% [at 46.1 µM]
N/C(=N/O)c1nc(N2CCCC2)nc(N(c2ccccc2)c2ccccc2)n1 | inconclusive: 22.4 µM [inhibitor, single point] | –
C1=C(CCNc2ncnc3c2[nH]c2ccccc23)CCCC1 | inconclusive: 1 µM [inhibitor, partial curve, poor fit] | –
Cc1ccc(NC(=O)c2ccc(S(=O)(=O)N3CCCCCC3)cc2)nc1 | inconclusive: 4.47 µM [inhibitor, partial curve, poor fit] | –
O=C(CSc1ccc(Br)cc1)NCC(c1ccco1)N1CCCCC1 (stereo not given) | – | inactive: -6.82%
Cc1nn(-c2nnc(NCc3ccccc3)nn2)c(C)c1Br | inconclusive: 31.6 µM [activator, single point] | –
CCN(CC)CCSc1nc2ccccc2c(=S)n1-c1ccccc1 | inconclusive: 31.6 µM [inhibitor, single point] | –
Brc1ccc(-c2nnc(-c3ccccc3)c(N3CCSCC3)n2)cc1 | inconclusive: 35.5 µM [inhibitor, single point] | –
COc1ccccc1C(=O)NNC(=S)NC(=O)c1sc2ccccc2c1Cl | – | inactive: -12.3%
COc1cc(Cl)c(C)cc1NC(=O)COc1ccc(C)nc1[N+](=O)[O-] | – | inactive: 20.8%
COc1ccc(NC2CC(=O)N(c3ccccc3)C2=O)cc1 (stereo not given) | inconclusive: 35.5 µM [activator, single point] | –
CCNC(=O)NC(=O)C(C)Sc1nc2ccccc2c(=O)n1-c1cccnc1 (stereo not given) | – | inactive: 1.9%

Reference: PubChem BioAssay AID540276 (National Center for Advancing Translational Sciences (NCATS), 2011)
